PubChem BioAssay AID1224830 – NIAID – 2016
In all, the deposit lists about 18,000 reagents; this is a part drawn at random. In the full data, about 2,900 (16%) were called active. 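Calls are made per well; low scores hint the gene aids the LPS response, high scores that it dampens it.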 Repeated entries: four replicate wells of each siRNA pool. Reagent sequences are not shown.

Screen: 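Host factors that control LPS-induced TNF expression in human macrophages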 (primary screen)
System: human THP-1 monocytic leukaemia cells, TNF dual-luciferase reporter clone, PMA-differentiated to macrophage-like cells
Reagent: siRNA pool against human genes, 50 nM
Time to read-out: LPS for 4 h, given about 3 days after siRNA transfection
Treatment: bacterial LPS (TLR4 ligand), 10 ng/ml
Measurement: 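Ratio of firefly to renilla light, scaled to the plate median and expressed as a robust z-score per replicate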
Reading the numbers: TNF reporter robust z-score: higher = stronger TNF reporter response to LPS
Hit rule: 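a well is active when its z-score exceeds 2.8 or falls below -1.5; control wells carry no call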

| gene symbol | TNF reporter robust z-score | Outcome |
| --- | --- | --- |
| FNDC5 (fibronectin type III domain containing 5) | -0.35 | inactive |
| FNDC5 (fibronectin type III domain containing 5) | -0.13 | inactive |
| FNDC5 (fibronectin type III domain containing 5) | -0.44 | inactive |
| FNDC5 (fibronectin type III domain containing 5) | -0.17 | inactive |
| ASCC3 (activating signal cointegrator 1 complex subunit 3) | 0.7 | inactive |
| ASCC3 (activating signal cointegrator 1 complex subunit 3) | 1.97 | inactive |
| ASCC3 (activating signal cointegrator 1 complex subunit 3) | 0.89 | inactive |
| ASCC3 (activating signal cointegrator 1 complex subunit 3) | 1.21 | inactive |
| TMEM59 (transmembrane protein 59) | -1.19 | inactive |
| TMEM59 (transmembrane protein 59) | -1.15 | inactive |
| TMEM59 (transmembrane protein 59) | -1.21 | inactive |
| TMEM59 (transmembrane protein 59) | -1.52 | active |
| ALPG (alkaline phosphatase, germ cell) | 0.58 | inactive |
| ALPG (alkaline phosphatase, germ cell) | 0.73 | inactive |
| ALPG (alkaline phosphatase, germ cell) | 0.78 | inactive |
| ALPG (alkaline phosphatase, germ cell) | -0.3 | inactive |
| SRP19 (signal recognition particle 19) | 2.35 | inactive |
| SRP19 (signal recognition particle 19) | 1.75 | inactive |
| SRP19 (signal recognition particle 19) | 1.98 | inactive |
| SRP19 (signal recognition particle 19) | -0.07 | inactive |
| ZDHHC8 (zDHHC palmitoyltransferase 8) | -0.2 | inactive |
| ZDHHC8 (zDHHC palmitoyltransferase 8) | -1 | inactive |
| ZDHHC8 (zDHHC palmitoyltransferase 8) | -1.33 | inactive |
| ZDHHC8 (zDHHC palmitoyltransferase 8) | 0.28 | inactive |
| S100A6 (S100 calcium binding protein A6) | 0.84 | inactive |
| S100A6 (S100 calcium binding protein A6) | 0.97 | inactive |
| S100A6 (S100 calcium binding protein A6) | 0.36 | inactive |
| S100A6 (S100 calcium binding protein A6) | 0.21 | inactive |
| CRY1 (cryptochrome circadian regulator 1) | -0.23 | inactive |
| CRY1 (cryptochrome circadian regulator 1) | 0.08 | inactive |
| CRY1 (cryptochrome circadian regulator 1) | -0.64 | inactive |
| CRY1 (cryptochrome circadian regulator 1) | 0.32 | inactive |
| MIIP (migration and invasion inhibitory protein) | -0.33 | inactive |
| MIIP (migration and invasion inhibitory protein) | -0.01 | inactive |
| MIIP (migration and invasion inhibitory protein) | -0.84 | inactive |
| MIIP (migration and invasion inhibitory protein) | -0.26 | inactive |
| ELOA (elongin A) | -0.66 | inactive |
| ELOA (elongin A) | -1.1 | inactive |
| ELOA (elongin A) | -0.16 | inactive |
| ELOA (elongin A) | -1.21 | inactive |
| LIPH (lipase H) | 0.1 | inactive |
| LIPH (lipase H) | 0.82 | inactive |
| LIPH (lipase H) | -0.25 | inactive |
| LIPH (lipase H) | 1.71 | inactive |
| PHOSPHO1 (phosphoethanolamine/phosphocholine phosphatase 1) | -0.27 | inactive |
| PHOSPHO1 (phosphoethanolamine/phosphocholine phosphatase 1) | 0.41 | inactive |
| PHOSPHO1 (phosphoethanolamine/phosphocholine phosphatase 1) | -0.85 | inactive |
| PHOSPHO1 (phosphoethanolamine/phosphocholine phosphatase 1) | 0.19 | inactive |
| GNB3 (G protein subunit beta 3) | -0.41 | inactive |
| GNB3 (G protein subunit beta 3) | -0.02 | inactive |
| GNB3 (G protein subunit beta 3) | -0.3 | inactive |
| GNB3 (G protein subunit beta 3) | 0.07 | inactive |
| TRIM31 (tripartite motif containing 31) | 1.06 | inactive |
| TRIM31 (tripartite motif containing 31) | -0.05 | inactive |
| TRIM31 (tripartite motif containing 31) | 0.46 | inactive |
| TRIM31 (tripartite motif containing 31) | -0.62 | inactive |
| P3H3 (prolyl 3-hydroxylase 3) | 0.29 | inactive |
| P3H3 (prolyl 3-hydroxylase 3) | 0.66 | inactive |
| P3H3 (prolyl 3-hydroxylase 3) | 0.73 | inactive |
| P3H3 (prolyl 3-hydroxylase 3) | 1.09 | inactive |
| ITGAX (integrin subunit alpha X) | -0.19 | inactive |
| ITGAX (integrin subunit alpha X) | 0.19 | inactive |
| ITGAX (integrin subunit alpha X) | -0.82 | inactive |
| ITGAX (integrin subunit alpha X) | 0.61 | inactive |
| HTR3E (5-hydroxytryptamine receptor 3E) | -0.87 | inactive |
| HTR3E (5-hydroxytryptamine receptor 3E) | 0.38 | inactive |
| HTR3E (5-hydroxytryptamine receptor 3E) | 0.08 | inactive |
| HTR3E (5-hydroxytryptamine receptor 3E) | -0.46 | inactive |
| HTR3E (5-hydroxytryptamine receptor 3E) | -0.89 | inactive |
| HTR3E (5-hydroxytryptamine receptor 3E) | 0.8 | inactive |
| HTR3E (5-hydroxytryptamine receptor 3E) | 0.3 | inactive |
| HTR3E (5-hydroxytryptamine receptor 3E) | -0.6 | inactive |
| S100A2 (S100 calcium binding protein A2) | -0.92 | inactive |
| S100A2 (S100 calcium binding protein A2) | -0.7 | inactive |
| S100A2 (S100 calcium binding protein A2) | -1.83 | active |
| S100A2 (S100 calcium binding protein A2) | -1.07 | inactive |
| ERP27 (endoplasmic reticulum protein 27) | 1.22 | inactive |
| ERP27 (endoplasmic reticulum protein 27) | 1.81 | inactive |
| ERP27 (endoplasmic reticulum protein 27) | 2.64 | inactive |
| ERP27 (endoplasmic reticulum protein 27) | 2.27 | inactive |
| PEX14 (peroxisomal biogenesis factor 14) | 0.2 | inactive |
| PEX14 (peroxisomal biogenesis factor 14) | 0.06 | inactive |
| PEX14 (peroxisomal biogenesis factor 14) | 1.93 | inactive |
| PEX14 (peroxisomal biogenesis factor 14) | 0.67 | inactive |
| NEURL2 (neuralized E3 ubiquitin protein ligase 2) | -0.72 | inactive |
| NEURL2 (neuralized E3 ubiquitin protein ligase 2) | -0.43 | inactive |
| NEURL2 (neuralized E3 ubiquitin protein ligase 2) | -0.67 | inactive |
| NEURL2 (neuralized E3 ubiquitin protein ligase 2) | -1.96 | active |
| SKP1 (S-phase kinase associated protein 1) | -0.66 | inactive |
| SKP1 (S-phase kinase associated protein 1) | -0.2 | inactive |
| SKP1 (S-phase kinase associated protein 1) | -0.73 | inactive |
| SKP1 (S-phase kinase associated protein 1) | 0.3 | inactive |
| METTL25 (methyltransferase like 25) | -1.12 | inactive |
| METTL25 (methyltransferase like 25) | -0.95 | inactive |
| METTL25 (methyltransferase like 25) | -1.15 | inactive |
| METTL25 (methyltransferase like 25) | -0.83 | inactive |
| TRA2B (transformer 2 beta homolog) | -0.81 | inactive |
| TRA2B (transformer 2 beta homolog) | -0.84 | inactive |
| TRA2B (transformer 2 beta homolog) | -0.52 | inactive |
| TRA2B (transformer 2 beta homolog) | 0.07 | inactive |
| PHF6 (PHD finger protein 6) | -0.13 | inactive |
| PHF6 (PHD finger protein 6) | -0.74 | inactive |
| PHF6 (PHD finger protein 6) | 0.82 | inactive |
| PHF6 (PHD finger protein 6) | 3.31 | active |
| TRIML2 (tripartite motif family like 2) | -0.25 | inactive |
| TRIML2 (tripartite motif family like 2) | -0.72 | inactive |
| TRIML2 (tripartite motif family like 2) | -0.99 | inactive |
| TRIML2 (tripartite motif family like 2) | -1.03 | inactive |
| OPRM1 (opioid receptor mu 1) | 1.72 | inactive |
| OPRM1 (opioid receptor mu 1) | -0.95 | inactive |
| OPRM1 (opioid receptor mu 1) | -1.72 | active |
| OPRM1 (opioid receptor mu 1) | -0.9 | inactive |

Hits (from the list above):
| gene symbol | TNF reporter robust z-score | Outcome |
| --- | --- | --- |
| TMEM59 (transmembrane protein 59) | -1.52 | active |
| S100A2 (S100 calcium binding protein A2) | -1.83 | active |
| NEURL2 (neuralized E3 ubiquitin protein ligase 2) | -1.96 | active |
| PHF6 (PHD finger protein 6) | 3.31 | active |
| OPRM1 (opioid receptor mu 1) | -1.72 | active |
